Reference: publication PMC7247550
No constants are given. Whether binding was seen depends on the method and setting. Binding seen in cells or lysates may run through a third protein. A yes stands for co-enrichment or nearness to the bait. Other partners may have been found.

Tests used:
[1] = molecular target: NME1 (human (endogenous in SK-N-BE(2) and SK-N-AS)), P15531; assay: affinity purification with mass spectrometry; endogenous NME1 immunoprecipitated with mouse monoclonal nm23-H1 sc-465 antibody and protein A agarose from SK-N-BE(2) and SK-N-AS lysates (20 mM Tris HCl pH 8, 100 mM NaCl, 2 mM EDTA, 1% NP40, Benzonase), 4 °C; eluted proteins digested with trypsin, LC-MS/MS; conditions: remark: other sources report otherwise
[2] = molecular target: NME1 (human (endogenous in SK-N-BE(2) and SK-N-AS)) (UniProt P15531); assay: as above

| binding [1] | binding [2] | Binder |
| --- | --- | --- |
| binds |  | NME2, P22392 1-152 (protein) MANLERTFIAIKPDGVQRGLVGEIIKRFEQKGFRLVAMKFLRASEEHLKQHYIDLKDRPFFPGLVKYMNSGPVVAMVWEGLNVVKTGRVMLGETNPADSKPGTIRGDFCIQVGRNIIHGSDSVKSAEKEISLWFKPEELVDYKSCAHDWVYE |
|  | binds | NME3 (protein, UniProt Q13232 1-169) MICLVLTIFANLFPAACTGAHERTFLAVKPDGVQRRLVGEIVRRFERKGFKLVALKLVQASEELLREHYAELRERPFYGRLVKYMASGPVVAMVWQGLDVVRTSRALIGATNPADAPPGTIRGDFCIEVGKNLIHGSDSVESARREIALWFRADELLCWEDSAGHWLYE |
